Results from article PMC7124466.
Results are given in words; binding and its absence hold for the method and conditions named. Binding seen in cells or lysates may run through a third protein. Some results given as binding are weak or reduced against the parent protein; the word gives no strength.

Key:
Test in all cases: cross-linking; intact purified yeast mitochondria (5 mg/ml, isotonic buffer: 250 mM sucrose, 1 mM EDTA, 10 mM MOPS-KOH, pH 7.2) crosslinked in organello with 2 mM CBDPS-H8/D8, 21 °C 10 min then on ice 110 min; Lys-Lys inter-protein crosslinked peptides enriched (SCX, avidin) and identified by LC-MS/MS, FDR 2%
[1] = target: T1, LSP1 (yeast (endogenous in mitochondria of strain YPH499)) (UniProt Q12230)
T1 sequence: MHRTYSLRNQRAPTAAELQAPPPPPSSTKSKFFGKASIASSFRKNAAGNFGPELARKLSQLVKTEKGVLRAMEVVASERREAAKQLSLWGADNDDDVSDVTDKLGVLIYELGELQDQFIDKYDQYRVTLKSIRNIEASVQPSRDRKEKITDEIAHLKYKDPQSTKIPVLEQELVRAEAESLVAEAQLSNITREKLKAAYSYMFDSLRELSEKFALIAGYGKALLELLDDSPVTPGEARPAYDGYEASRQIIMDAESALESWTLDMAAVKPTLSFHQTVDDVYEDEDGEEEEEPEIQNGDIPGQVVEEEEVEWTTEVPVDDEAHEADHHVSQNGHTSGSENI

[2] = target: T2, ATP19 (yeast (endogenous in mitochondria of strain YPH499)) (UniProt P81451)
T2 sequence: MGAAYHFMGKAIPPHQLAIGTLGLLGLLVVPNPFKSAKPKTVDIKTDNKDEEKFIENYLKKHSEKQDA

[3] = target: T3, IDH1 (yeast (endogenous in mitochondria of strain YPH499)) (UniProt P28834)
T3 sequence: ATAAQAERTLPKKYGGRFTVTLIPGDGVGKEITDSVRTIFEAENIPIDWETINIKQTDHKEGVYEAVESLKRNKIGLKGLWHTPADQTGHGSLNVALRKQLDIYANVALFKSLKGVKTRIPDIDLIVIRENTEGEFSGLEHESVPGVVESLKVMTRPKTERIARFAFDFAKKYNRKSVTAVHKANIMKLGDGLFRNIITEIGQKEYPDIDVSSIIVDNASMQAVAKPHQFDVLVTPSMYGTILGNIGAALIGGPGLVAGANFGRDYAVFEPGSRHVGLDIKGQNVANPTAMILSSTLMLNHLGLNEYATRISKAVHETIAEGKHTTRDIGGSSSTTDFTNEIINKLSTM

B1: PIL1 (protein, UniProt P53252 1-339)
chain: MHRTYSLRNSRAPTASQLQNPPPPPSTTKGRFFGKGGLAYSFRRSAAGAFGPELSRKLSQLVKIEKNVLRSMELTANERRDAAKQLSIWGLENDDDVSDITDKLGVLIYEVSELDDQFIDRYDQYRLTLKSIRDIEGSVQPSRDRKDKITDKIAYLKYKDPQSPKIEVLEQELVRAEAESLVAEAQLSNITRSKLRAAFNYQFDSIIEHSEKIALIAGYGKALLELLDDSPVTPGETRPAYDGYEASKQIIIDAESALNEWTLDSAQVKPTLSFKQDYEDFEPEEGEEEEEEDGQGRWSEDEQEDGQIEEPEQEEEGAVEEHEQVGHQQSESLPQQTTA
B1 was tested, and the binding [1] was “binds”.

B2: TIM11 (protein, UniProt P81449 1-96)
chain: MSTVNVLRYSALGLGLFFGFRNDMILKCNAKKKEEQAQYEEKLKLVEEAKKEYAKLHPVVTPKDVPANASFNLEDPNIDFERVILNAVESLKEAST
In the case of B2, the binding [2] is reported as “binds”.

B3: IDH2 (protein, UniProt P28241 16-369)
chain: ATVKQPSIGRYTGKPNPSTGKYTVSFIEGDGIGPEISKSVKKIFSAANVPIEWESCDVSPIFVNGLTTIPDPAVQSITKNLVALKGPLATPIGKGHRSLNLTLRKTFGLFANVRPAKSIEGFKTTYENVDLVLIRENTEGEYSGIEHIVCPGVVQSIKLITRDASERVIRYAFEYARAIGRPRVIVVHKSTIQRLADGLFVNVAKELSKEYPDLTLETELIDNSVLKVVTNPSAYTDAVSVCPNLYGDILSDLNSGLSAGSLGLTPSANIGHKISIFEAVHGSAPDIAGQDKANPTALLLSSVMMLNHMGLTNHADQIQNAVLSTIASGPENRTGDLAGTATTSSFTEAVIKRL
With B3 the binding [3] was “binds”.
